Laboratory results: patent US4348264A, “Photocatalyzed process for producing carbapenams and carbapen-2-ems” (Pfizer Inc., priority 1981, dated 1982)
For at least one compound, name, drawing or mass did not settle the structure.

Test system: Staphylococcus aureus
Test: Standard disc-plate method, zone of inhibition
Assay type: cell-based
Details: 25 microg. disc
Source text: The utility of the various compounds as intermediates to other compounds of the present invention will be evident from the preceding discussion. The antibacterial activity of these compounds, reflecting their utility in the control of susceptible bacterial infections in man and animals, as animal feed additives for promotion of growth, or as preservatives of materials biodegraded by susceptible microorganisms, is best measured by the standard disc-plate method routinely employed in clinical laboratories for determining the sensitivity of microorganisms to antimicrobial substances. Sensitivity discs are prepared by dipping a standard 6.25 mm. paper disc into a solution of the compound to be tested (conc. 1 mg./ml.) in a volatile solvent (e.g. methylene chloride) and the disc dried, producing discs containing approximately 25 microg. of the compound. The discs are placed on the surface of agar growth media seeded with the test microorganism, previously plated into Petri dishes. The plates are incubated overnight at 35°-37° C. Activity of the test compound is reflected by a zone of inhibition of bacterial growth around the test disc. The diameter of this zone provides a quantitative measure of the activity of the antibacterial substance. […]

SMILES: CC1C(=O)C2CC(=O)N2C1C(=O)OCOC(=O)C(C)(C)C (stereo not shown) [H H POM CH3 O I, Pivaloyloxymethyl 2-Methyl-1-oxocarbapenam-3-carboxylate]
- activity in disc-plate assay: good activity
